# At least one structure is not confirmed: it was looked up by name or label, or the drawing left a doubt.
# Experiments:
# Type in all cases: in vivo, mouse
# [1] = tested on: long-term isolated rearing stress mice; assay: Long-term isolated rearing stress, forced swim test; conditions: long-term isolated rearing 6 weeks; 30 mg/kg i.p. single dose; 24 hours later
# [2] = tested on: chronic social defeat stress mice; assay: Chronic social defeat stress, light-dark test; conditions: 30 mg/kg i.p. single dose, 60 minutes after
# [3] = tested on: chronic social defeat stress mice; assay: Chronic social defeat stress, social preference or avoidance test (SPAT)
# From the text: When male C57BL/6N mice (8 to 12 weeks old) are allowed to coexist with ICR mice having a large physical size, the male C57BL/6N mice run about in the beginning in order to avoid attack by the ICR mice, but eventually make a posture to immediately raise their forelegs and accept defeats (obedience) by repeated load for 5 days to 10 days (chronic social defeat stress (SDS) load).
# The social preference or avoidance test (SPAT) is a test that has received attention in recent years as a highly extrapolatable antidepressant drug screening system. SPAT evaluates the degree of interest in others (sociality). A box (which has a wired contact surface) is disposed in an open field. A time of contact with a target (time spent in an interaction zone) and a time spent in an avoidance zone are measured without the target (ICR mice) placed in the box in the first run and with the target (ICR mice) placed in the box in the second run. Time spent in the second run/Time spent in the first run is calculated (social interaction ratio). The social interaction ratio is decreased in chronic social defeat stress mice. Stress susceptibility differs among individuals, and susceptible individuals (social interaction ratio <1) and resilient individuals (social interaction ratio 1) are found.
# (§1) Chronic social defeat stress was applied at 10 min/day for 10 days (Days 1 to 10) to male C57BL/6N mice (8 to 12 weeks old) each reared in isolation for 10 days or longer. On Day 11, the social preference or avoidance test (SPAT) was conducted, and susceptible mice were selected. A vehicle (10% DMSO solution; dissolved in saline; n=12) or PA-8 (30 mg/kg; n=9) was intraperitoneally administered once daily (0.1 mL/10 g) for 7 consecutive days from day 12. SPAT was conducted for 150 seconds 30 minutes after the final administration on the 7th day (Day 18). Mice reared for 10 days in a home cage without chronic social defeat stress load were used as a control (n=12). The results are shown in FIG. 15 (A: social interaction ratio, B: time spent in the interaction zone, C: time spent in the avoidance zone). The data was indicated by mean±standard error. *P<0.05 (One-way ANOVA followed by Tukey-Kramer test).
# as §1, with “or PA-9” for “or PA-8”, “FIG. 17” for “FIG. 15”, “zone). […]” for “zone).”
# Chronic social defeat stress was applied at 10 min/day for 10 days (Days 1 to 10) to male C57BL/6N mice (8 to 12 weeks old) each reared in isolation for 10 days or longer. On Day 11, the social preference or avoidance test (SPAT) was conducted, and susceptible mice were selected. On the next day (Day 12), a vehicle (10% DMSO solution; dissolved in saline; n=17) or PA-915 (30 mg/kg; n=17) was intraperitoneally administered (0.1 mL/10 g) to the mice. SPAT was conducted for 150 seconds 60 minutes later. Mice reared for 10 days in a home cage without chronic social defeat stress load were used as a control (n=22). The results are shown in FIG. 19 (A: social interaction ratio, B: time spent in the interaction zone, C: time spent in the avoidance zone). […] The data was indicated by mean±standard error. **P<0.01; *P<0.05 (One-way ANOVA followed by Tukey-Kramer test). […]
# [4] = tested on: chronic social defeat stress mice; assay: Chronic social defeat stress, novel object recognition test; conditions: 30 mg/kg i.p. single dose Day 12, test Day 16
# [5] = tested on: normal mice; assay: Elevated plus maze test in normal mice; conditions: normal male C57BL/6J mice, 30 mg/kg i.p., 60 min after administration, 5 min test
# Method: The effects of PA-8 and PA-81004 on normal mice were evaluated by an elevated plus maze test (test that exploits the properties of mice to avoid heights and prefer to stay near walls; in this test, anxiety-like behavior is evaluated by placing the mice at the center of a maze disposed at a height of 50 cm in which a 26 cm long and 8 cm wide open arm without walls and a closed-arm with walls are disposed in a cross shape, and measuring a time spent in the open arm and the number of entries thereto).
# Male C57BL/6J mice (8 to 12 weeks old) were acclimatized to a laboratory (illuminance: 50 lx) for 60 minutes. Then, a vehicle (10% DMSO solution; dissolved in saline; n=13), PA-8 (30 mg/kg; n=12) or PA-81004 (30 mg/kg; n=12) was intraperitoneally administered thereto (0.1 mL/10 g). After a lapse of 60 minutes after administration, the test was conducted for 5 minutes. The results are shown in FIG. 3 (A: total distance traveled, B: the number of open arm (course without walls) entries, C: time spent in the open arm).
# The effects of PA-9 and PA-915 on normal mice were evaluated by the elevated plus maze test.
# Male C57BL/6J mice (8 to 12 weeks old) were acclimatized to a laboratory (illuminance: 50 lx) for 60 minutes. Then, a vehicle (10% DMSO solution; dissolved in saline; n=8), PA-9 (30 mg/kg; n=8) or PA-915 (30 mg/kg; n=7) was intraperitoneally administered thereto (0.1 mL/10 g). […]
# [6] = tested on: chronic social defeat stress mice; assay: Chronic social defeat stress, Y maze test
compound,measurement,setting,value
"O=C(NCCc1c[nH]cn1)C1CC(=O)N(c2n[nH]c3c(Cl)cccc23)C1 (stereo not drawn) [PA-915, N-[2-(1H-imidazol-4-yl)ethyl]-1-(7-chloro-1H-indazol-3-yl)-5-oxo-3-pyrrolidinecarboxamide]","effect on depressive-like behavior (forced swim test, immobility time)",[1],improved depressive-like behavior
same,effect on anxiety-like behavior (light-dark test),[2],fast-acting anti-anxiety effect
same,effect on social behavioral abnormality (SPAT),"[3]; Example 13, 30 mg/kg i.p. single dose, 60 minutes later",significantly improved social behavioral abnormality
same,effect on social behavioral abnormality (SPAT),"[3]; Example 14, 30 mg/kg i.p. single dose, 7 days later (Day 19)",maintained its effectiveness
same,effect on social behavioral abnormality (SPAT),"[3]; Example 14, 30 mg/kg i.p. single dose, 28 days later (Day 40)",maintained its effectiveness
same,sustained effect on social behavioral abnormality (social interaction ratio),"[3]; Example 18, 7, 14, 28 days after single i.p. dose (PA-915 30 mg/kg, ketamine 20 mg/kg), fluoxetine 20 mg/kg i.p. 14-day consecutive administration","maintained its effectiveness 7, 14, and 28 days later"
same,effect on social behavioral abnormality (social interaction ratio),"[3]; Example 18, single i.p. dose (PA-915 30 mg/kg, ketamine 20 mg/kg, fluoxetine 20 mg/kg), 60 minutes later (Day 12)",improved social behavioral abnormality
same,effect on social behavioral abnormality (SPAT),"[3]; Example 21, 30 mg/kg oral administration, 60 minutes later",tended to improve social behavioral abnormality
same,effect on cognitive impairment (novel object recognition test),[4],fast-acting and sustained improving effect
same,"pharmacological action in elevated plus maze test (total distance, open arm entries, time in open arm)",[5],no pharmacological action
same,effect on cognitive impairment (Y maze test),"[6]; 30 mg/kg i.p. single dose, 60 minutes after",fast-acting and sustained improving effect
same,effect on cognitive impairment (Y maze test),"[6]; Example 23(3), 30 mg/kg by oral administration (heading) Day 12, test Day 13",significant improving effect

# Source: US12458643B2, “Antidepressant/anxiolytic drug in which PAC1 receptor antagonist is used” (KAGOSHIMA UNIVERSITY, priority 2020, dated 2025)
